{
  "source": "patent US20240034722A1",
  "about": "“PRETARGETING IMAGING AGENTS” (Eli Lilly and Company, priority 2020, published 2024)",
  "assay": "Dynamic micro PET-CT imaging, tracer uptake in brain, muscle and bone",
  "type": "in vivo",
  "settings": "male CD-1 mice, iv",
  "protocol": "(§1) A Siemens Inveon® Multimodality Scanner (Siemens, Germany) is used for micro PET-CT imaging. Male CD-1 (6-week-old, ˜30 g) mice are anesthetized with 3% isoflurane/97% oxygen and placed on the bed of the scanner. The mice are administered [^18F]N-(4-(1,2,4,5-tetrazin-3-yl)benzyl)-2-fluoronicotinamide via a bolus intravenous tail vein injection (˜350 ρCi in a total volume of 150 μL saline). A total of four dynamic PET scans are conducted, followed by a short high-resolution CT scan for anatomical registration. PET images are generated for each minute of the acquisition time. Uptake of the tracer in the brain, muscle, and bone are determined by visually drawing regions of interest (ROIs) based on the fused PET/CT images and the corresponding activity values are determined using the Inveon® Research Workplace software. All values are represented as % injected dose per gram (% ID/g).\nas §1, with “g) mice were anesthetized with” for “g) mice are anesthetized with”, “are administered [^18F]N-(4-(1,2,4,5-tetrazin-3-yl)benzyl)-6-fluoropicolinamide via a” for “are administered [^18F]N-(4-(1,2,4,5-tetrazin-3-yl)benzyl)-2-fluoronicotinamide via a”, “vein injection (˜300 ρCi in” for “vein injection (˜350 ρCi in”\nas §1, with “PET/CT” for “PET-CT”, “30-40” for “˜30”, “[^18F]N-(4-(1,2,4,5-tetrazin-3-yl)benzyl)-6-fluoronicotinamide” for “[^18F]N-(4-(1,2,4,5-tetrazin-3-yl)benzyl)-2-fluoronicotinamide”, “(˜300” for “(˜350”, “two” for “four”",
  "note": "Further values from the same series stand in other lists.",
  "data": [
    {"compound": "O=C(NCc1ccc(-c2nncnn2)cc1)c1ccc([18F])nc1", "note": "[Comparative Example 6, [^18]FN-(4-(1,2,4,5-tetrazin-3-yl)benzyl)-6-fluoronicotinamide]", "values": [
      {"measurement": "Bone Mean % ID/g", "setting": "Time 0.0 min", "value": 0.00, "unit": "% ID/g"},
      {"measurement": "Brain Mean % ID/g", "setting": "Time 0.0 min", "value": 0.00, "unit": "% ID/g"},
      {"measurement": "Muscle Mean % ID/g", "setting": "Time 0.0 min", "value": 0.00, "unit": "% ID/g"},
      {"measurement": "Bone Mean % ID/g", "setting": "Time 33.5 min", "value": 1.01, "unit": "% ID/g"},
      {"measurement": "Brain Mean % ID/g", "setting": "Time 33.5 min", "value": 1.36, "unit": "% ID/g"},
      {"measurement": "Muscle Mean % ID/g", "setting": "Time 33.5 min", "value": 1.00, "unit": "% ID/g"},
      {"measurement": "Bone Mean % ID/g", "setting": "Time 34.5 min", "value": 1.06, "unit": "% ID/g"},
      {"measurement": "Brain Mean % ID/g", "setting": "Time 34.5 min", "value": 1.34, "unit": "% ID/g"},
      {"measurement": "Muscle Mean % ID/g", "setting": "Time 34.5 min", "value": 1.04, "unit": "% ID/g"},
      {"measurement": "Bone Mean % ID/g", "setting": "Time 35.5 min", "value": 0.97, "unit": "% ID/g"},
      {"measurement": "Brain Mean % ID/g", "setting": "Time 35.5 min", "value": 1.33, "unit": "% ID/g"},
      {"measurement": "Muscle Mean % ID/g", "setting": "Time 35.5 min", "value": 1.04, "unit": "% ID/g"},
      {"measurement": "Bone Mean % ID/g", "setting": "Time 36.5 min", "value": 1.01, "unit": "% ID/g"},
      {"measurement": "Brain Mean % ID/g", "setting": "Time 36.5 min", "value": 1.30, "unit": "% ID/g"},
      {"measurement": "Muscle Mean % ID/g", "setting": "Time 36.5 min", "value": 1.04, "unit": "% ID/g"},
      {"measurement": "Bone Mean % ID/g", "setting": "Time 37.5 min", "value": 0.99, "unit": "% ID/g"},
      {"measurement": "Brain Mean % ID/g", "setting": "Time 37.5 min", "value": 1.31, "unit": "% ID/g"},
      {"measurement": "Muscle Mean % ID/g", "setting": "Time 37.5 min", "value": 1.03, "unit": "% ID/g"},
      {"measurement": "Bone Mean % ID/g", "setting": "Time 38.5 min", "value": 1.12, "unit": "% ID/g"},
      {"measurement": "Brain Mean % ID/g", "setting": "Time 38.5 min", "value": 1.29, "unit": "% ID/g"},
      {"measurement": "Muscle Mean % ID/g", "setting": "Time 38.5 min", "value": 1.03, "unit": "% ID/g"},
      {"measurement": "Bone Mean % ID/g", "setting": "Time 39.5 min", "value": 1.13, "unit": "% ID/g"},
      {"measurement": "Brain Mean % ID/g", "setting": "Time 39.5 min", "value": 1.26, "unit": "% ID/g"},
      {"measurement": "Muscle Mean % ID/g", "setting": "Time 39.5 min", "value": 1.03, "unit": "% ID/g"},
      {"measurement": "Bone Mean % ID/g", "setting": "Time 40.5 min", "value": 1.07, "unit": "% ID/g"},
      {"measurement": "Brain Mean % ID/g", "setting": "Time 40.5 min", "value": 1.25, "unit": "% ID/g"},
      {"measurement": "Muscle Mean % ID/g", "setting": "Time 40.5 min", "value": 1.05, "unit": "% ID/g"},
      {"measurement": "Bone Mean % ID/g", "setting": "Time 41.5 min", "value": 1.06, "unit": "% ID/g"},
      {"measurement": "Brain Mean % ID/g", "setting": "Time 41.5 min", "value": 1.26, "unit": "% ID/g"},
      {"measurement": "Muscle Mean % ID/g", "setting": "Time 41.5 min", "value": 1.08, "unit": "% ID/g"},
      {"measurement": "Bone Mean % ID/g", "setting": "Time 42.5 min", "value": 1.00, "unit": "% ID/g"},
      {"measurement": "Brain Mean % ID/g", "setting": "Time 42.5 min", "value": 1.23, "unit": "% ID/g"},
      {"measurement": "Muscle Mean % ID/g", "setting": "Time 42.5 min", "value": 1.06, "unit": "% ID/g"},
      {"measurement": "Bone Mean % ID/g", "setting": "Time 43.5 min", "value": 1.09, "unit": "% ID/g"},
      {"measurement": "Brain Mean % ID/g", "setting": "Time 43.5 min", "value": 1.23, "unit": "% ID/g"},
      {"measurement": "Muscle Mean % ID/g", "setting": "Time 43.5 min", "value": 1.07, "unit": "% ID/g"},
      {"measurement": "Bone Mean % ID/g", "setting": "Time 44.5 min", "value": 0.97, "unit": "% ID/g"},
      {"measurement": "Brain Mean % ID/g", "setting": "Time 44.5 min", "value": 1.21, "unit": "% ID/g"},
      {"measurement": "Muscle Mean % ID/g", "setting": "Time 44.5 min", "value": 1.02, "unit": "% ID/g"},
      {"measurement": "Bone Mean % ID/g", "setting": "Time 45.5 min", "value": 1.09, "unit": "% ID/g"},
      {"measurement": "Brain Mean % ID/g", "setting": "Time 45.5 min", "value": 1.21, "unit": "% ID/g"},
      {"measurement": "Muscle Mean % ID/g", "setting": "Time 45.5 min", "value": 1.10, "unit": "% ID/g"},
      {"measurement": "Bone Mean % ID/g", "setting": "Time 46.5 min", "value": 1.04, "unit": "% ID/g"},
      {"measurement": "Brain Mean % ID/g", "setting": "Time 46.5 min", "value": 1.19, "unit": "% ID/g"},
      {"measurement": "Muscle Mean % ID/g", "setting": "Time 46.5 min", "value": 1.06, "unit": "% ID/g"},
      {"measurement": "Bone Mean % ID/g", "setting": "Time 47.5 min", "value": 1.07, "unit": "% ID/g"},
      {"measurement": "Brain Mean % ID/g", "setting": "Time 47.5 min", "value": 1.19, "unit": "% ID/g"},
      {"measurement": "Muscle Mean % ID/g", "setting": "Time 47.5 min", "value": 1.07, "unit": "% ID/g"},
      {"measurement": "Bone Mean % ID/g", "setting": "Time 48.5 min", "value": 1.06, "unit": "% ID/g"},
      {"measurement": "Brain Mean % ID/g", "setting": "Time 48.5 min", "value": 1.18, "unit": "% ID/g"},
      {"measurement": "Muscle Mean % ID/g", "setting": "Time 48.5 min", "value": 1.06, "unit": "% ID/g"},
      {"measurement": "Bone Mean % ID/g", "setting": "Time 49.5 min", "value": 1.03, "unit": "% ID/g"},
      {"measurement": "Brain Mean % ID/g", "setting": "Time 49.5 min", "value": 1.18, "unit": "% ID/g"},
      {"measurement": "Muscle Mean % ID/g", "setting": "Time 49.5 min", "value": 1.06, "unit": "% ID/g"},
      {"measurement": "Bone Mean % ID/g", "setting": "Time 50.5 min", "value": 1.27, "unit": "% ID/g"},
      {"measurement": "Brain Mean % ID/g", "setting": "Time 50.5 min", "value": 1.17, "unit": "% ID/g"},
      {"measurement": "Muscle Mean % ID/g", "setting": "Time 50.5 min", "value": 1.11, "unit": "% ID/g"},
      {"measurement": "Bone Mean % ID/g", "setting": "Time 51.5 min", "value": 1.15, "unit": "% ID/g"},
      {"measurement": "Brain Mean % ID/g", "setting": "Time 51.5 min", "value": 1.16, "unit": "% ID/g"},
      {"measurement": "Muscle Mean % ID/g", "setting": "Time 51.5 min", "value": 1.09, "unit": "% ID/g"},
      {"measurement": "Bone Mean % ID/g", "setting": "Time 52.5 min", "value": 1.19, "unit": "% ID/g"},
      {"measurement": "Brain Mean % ID/g", "setting": "Time 52.5 min", "value": 1.15, "unit": "% ID/g"},
      {"measurement": "Muscle Mean % ID/g", "setting": "Time 52.5 min", "value": 1.10, "unit": "% ID/g"},
      {"measurement": "Bone Mean % ID/g", "setting": "Time 53.5 min", "value": 1.08, "unit": "% ID/g"},
      {"measurement": "Brain Mean % ID/g", "setting": "Time 53.5 min", "value": 1.14, "unit": "% ID/g"},
      {"measurement": "Muscle Mean % ID/g", "setting": "Time 53.5 min", "value": 1.10, "unit": "% ID/g"},
      {"measurement": "Bone Mean % ID/g", "setting": "Time 54.5 min", "value": 1.11, "unit": "% ID/g"},
      {"measurement": "Brain Mean % ID/g", "setting": "Time 54.5 min", "value": 1.13, "unit": "% ID/g"},
      {"measurement": "Muscle Mean % ID/g", "setting": "Time 54.5 min", "value": 1.10, "unit": "% ID/g"},
      {"measurement": "Bone Mean % ID/g", "setting": "Time 55.5 min", "value": 1.13, "unit": "% ID/g"},
      {"measurement": "Brain Mean % ID/g", "setting": "Time 55.5 min", "value": 1.09, "unit": "% ID/g"},
      {"measurement": "Muscle Mean % ID/g", "setting": "Time 55.5 min", "value": 1.11, "unit": "% ID/g"},
      {"measurement": "Bone Mean % ID/g", "setting": "Time 56.5 min", "value": 1.13, "unit": "% ID/g"},
      {"measurement": "Brain Mean % ID/g", "setting": "Time 56.5 min", "value": 1.09, "unit": "% ID/g"},
      {"measurement": "Muscle Mean % ID/g", "setting": "Time 56.5 min", "value": 1.05, "unit": "% ID/g"},
      {"measurement": "Bone Mean % ID/g", "setting": "Time 57.5 min", "value": 1.09, "unit": "% ID/g"},
      {"measurement": "Brain Mean % ID/g", "setting": "Time 57.5 min", "value": 1.09, "unit": "% ID/g"},
      {"measurement": "Muscle Mean % ID/g", "setting": "Time 57.5 min", "value": 1.13, "unit": "% ID/g"},
      {"measurement": "Bone Mean % ID/g", "setting": "Time 58.5 min", "value": 1.03, "unit": "% ID/g"},
      {"measurement": "Brain Mean % ID/g", "setting": "Time 58.5 min", "value": 1.08, "unit": "% ID/g"},
      {"measurement": "Muscle Mean % ID/g", "setting": "Time 58.5 min", "value": 1.05, "unit": "% ID/g"},
      {"measurement": "Bone Mean % ID/g", "setting": "Time 59.5 min", "value": 1.07, "unit": "% ID/g"},
      {"measurement": "Brain Mean % ID/g", "setting": "Time 59.5 min", "value": 1.09, "unit": "% ID/g"},
      {"measurement": "Muscle Mean % ID/g", "setting": "Time 59.5 min", "value": 1.09, "unit": "% ID/g"}
    ]}
  ]
}
